Measured values as given in patent publication US20140163203 (published 2014).
Non-standard residues stand in square brackets, D forms with d. *: point of attachment. Trt = c1ccc(C(c2ccccc2)(c2ccccc2)*)cc1; hArg = N=C(N)NCCCC[C@H](N)C(=O)O; OtBu = CC(C)(C)O*; Mpa = O=C(O)CCS

Experiment: general procedure: solution-phase peptide synthesis; EDAC.HCl/HOBT
Conditions: for purity (crude or final not stated): HPLC

H-D(OtBu)WPC(Trt)-NH2 [listing 1 of 2 here]
crude HPLC purity (coupling step): 95.2%
final HPLC purity (coupling step): 96%

H-GD(OtBu)WPC(Trt)-NH2
purity (crude or final not stated) (coupling step): 95%

[Mpa](Trt)[hArg]GD(OtBu)WPC(Trt)-NH2
crude HPLC purity (coupling step): 90%
final HPLC purity (coupling step): 96%
purity (crude or final not stated) (coupling step): 95%

Eptifibatide
crude HPLC purity (cyclisation step): 90%
purity (crude or final not stated) (oxidative folding step): 90%
final HPLC purity (purification step, acetate, run 1): 99.5%
final HPLC purity (purification step, acetate, run 2): 99.5%
final HPLC purity (purification step, acetate, run 3): 99.4%

[Mpa][hArg]GDWPC-NH2 (cysteine pairing not given here)
crude HPLC purity (late stage modification step): 85%

[Mpa](Trt)[hArg]GD(OtBu)-OH
purity (crude or final not stated) (coupling step): 95%

H-D(OtBu)WPC(Trt)-NH2 [listing 2 of 2 here]
final HPLC purity (coupling step, run 1): 95%
final HPLC purity (coupling step, run 2): 96%
